Data taken from US12116424B2 (priority 2021, dated 2024).

Assay: general procedure: Fmoc solid-phase peptide synthesis; Fmoc Dawson Dbz AM resin (thioester AIPs); pre-loaded L-valine 2-chlorotrityl resin (0.74 mmol/g) (amide AIPs); HATU, DIPEA
Settings: whole synthesis, 220 nm, scale of the general procedure 0.0147 mmol (thioester AIPs), 0.037 mmol (amide AIPs)

Substance	final HPLC purity [%]
A-(C-A-M-F-V)	99.0
A-(C-F-A-F-V)	>99
A-(C-F-M-A-V)	99.0
A-(C-F-M-F-A)	98.8
A-(C-F-M-F-V)	>99
A-(C-F-M-F-dV)	98.1
A-(C-F-M-H-V)	97.8
A-(C-F-M-L-V)	96.4
A-(C-F-M-W-V)	>99
A-(C-F-M-Y-V)	98.6
A-(C-H-M-F-V)	95.4
A-(C-L-M-F-V)	98.3
A-(C-S-M-F-A)	>99
A-(C-S-M-F-V)	97.0
A-(C-W-M-F-V)	98.8
A-(C-Y-M-F-V)	96.4
A-(dC-F-M-F-V)	97.9
A-D-S-S-M-S-K-A-(C-F-M-F-V)	96.5
Ac-(C-F-M-F-V)	96.9
Ac-(C-V-G-F-V)	98.4

Substance	final HPLC purity [%]
D-S-S-M-S-K-A-(C-F-M-F-V)	98.4
K-(C-F-M-F-V)	98.6
K-(dC-F-M-F-V)	97.3
K-A-(C-F-M-F-V)	97.7
K-A-(dC-F-M-F-V)	97.3
K-K-(C-F-M-F-V)	>99
K-V-A-D-S-S-M-S-K-A-(C-F-M-F-V)	96.4
M-S-K-A-(C-F-M-F-V)	94.3
P-(C-F-M-F-V)	98.6
S-(C-F-L-I-F)	>99
S-(C-V-G-L-S)	>99
S-(C-V-L-H-L)	>99
S-K-A-(C-F-M-F-V)	92.3
S-M-S-K-A-(C-F-M-F-V)	93.2
S-S-M-S-K-A-(C-F-M-F-V)	97.9
T-(C-F-M-F-V)	98.6
V-(C-F-M-F-V)	96.5
V-A-D-S-S-M-S-K-A-(C-F-M-F-V)	98.2
dA-(C-F-M-F-V)	97.5
